Part of at least one peptide drawing is inferred or uncertain, most often the ends.
Legend:
[1] = tested on: spleen cells of mice incubated with SRBC; experiment: Plaque forming cells test; format: in vivo
Method: As the in vivo test, the so-called "plaque forming cells" test described by N. Jerne (same reference as above), has been used. The test is carried out incubating spleen cells of mice who had received the test peptides, with SRBC and counting the number of plaques formed. In the actual practice, groups of 3 mice each, received about 1 ng/mouse of test peptide i.p. one hour after the antigen (SRBC) inoculation. Four days after this treatment, the spleen cells are removed and the test is immediately carried out.
The "plaque forming cells" test has been repeated also by treating the test mice with TP5 or with the corresponding retro-inverso analog TP5-RI1-2, three days before antigen (SRBC) injection.

cord blood cells (CBC) = experiment: Rosette E formation test with sheep red blood cells; format: cell-based, human; conditions: 10 ng/ml, overnight at 37° C.
From the text: In particular, as the in vitro test, the Rosette E formation test has been performed both on peripheral blood […] (PBMC) and on cord blood cells (CBC). The CBC used give a percentage of Rosette E formation with sheep red blood cells (SRBC) of 20-40%. The test is based on the capability of human T cells of forming Rosette E with SRBC. The assay which has been carried out according to the metodology described by O.G.Bier at al. in Fundamentals of Immunology--Springer-Verlag (1981), consists in the incubation of CBC, with or without the test peptides, overnight at 37° C. in the presence of 5% CO2.

CC(C)[C@H](NC(=O)[C@H](CC(=O)O)NC(=O)C(CCCCN)C(=O)N[C@@H](N)CCCNC(=N)N)C(=O)N[C@@H](Cc1ccc(O)cc1)C(=O)O (stereo partly drawn) [TP5-RI1-2, AcOH·H-gArg-(R,S)mLys-Asp-Val-Tyr--OH]
Log Number of plaques ([1]; mice treated three days before antigen (SRBC) injection, blank 4.64): 5.01 | Number of plaques formed ([1]; mice treated three days before antigen (SRBC) injection, blank 44.000): 103.000 | Log Number of plaques ([1]; mice, about 1 ng/mouse i.p. one hour after antigen (SRBC) inoculation, spleen cells four days later, blank 4.62): 4.93 | Number of plaques formed ([1]; mice, about 1 ng/mouse i.p. one hour after antigen (SRBC) inoculation, spleen cells four days later, blank 42.000): 85.583 | % formation of Rosette E (cord blood cells (CBC); 5% CO2, blank 23): 34% | % of live cells after incubation (cord blood cells (CBC); 5% CO2, blank 100): 68%

Reference: patent US5200506A, “Process for preparing new thymopentin retro-inverso analogs and fragments thereof and the intermediates obtained therein” (Eniricerche S.p.A., priority 1987, dated 1993)
